Laboratory results: PubChem BioAssay AID1259254 (NCATS, 2017)
The deposit covers about 59,000 reagents; this is a part drawn at random. About 1,550 of them (2.6%) were called active. 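G2 share is only a proxy for re-replication; each gene was hit by three separate siRNAs, and active genes were retested.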 A number with no mark means an inactive call. The numbers tell different reagents against one gene apart. Further read-outs or replicates are left out here. No sequences are given here. Not given: the amount of reagent.

Screen: 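Gene knock-downs that lead to re-replication, shown by excess G2 DNA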 (primary screen)
Cells: human HCT116 colorectal cancer cells
Knock-down reagent: single siRNA against human genes
Duration: 3 days
Read-out: 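Imaged Hoechst DNA stain sorts each cell into a cycle phase by DNA amount; per plate, G2 fraction set to 0% for non-targeting and 100% for GMNN siRNA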
Direction: G2 robust z-score and G2 cells, % of GMNN control: higher = more G2 cells, more excess DNA replication
Active means: 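Active siRNAs have a G2 robust z of 5 or more median absolute deviations over the median, which in these data means about 38% or higher of GMNN control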

target,reagent no.,G2 robust z-score,"G2 cells, % of GMNN control"
C6,1,2.38,19.7
C6,2,0.525,6.66
C6,3,3.71,29.1
CHSY3,1,-0.488,-0.463
CHSY3,2,0.862,9.03
CHSY3,3,-0.375,0.326
SMARCA5,1,-0.213,1.47
SMARCA5,2,-0.382,0.28
SMARCA5,3,-0.637,-1.52
ZNF506,1,-0.625,-1.43
ZNF506,2,-0.636,-1.51
ZNF506,3,2.9,23.4
ZNF566-AS1,1,-0.26,1.14
ZNF566-AS1,2,-0.966,-3.83
ZNF566-AS1,3,-0.925,-3.54
FAHD1,1,0.491,6.42
FAHD1,2,1.68,14.8
FAHD1,3,-0.287,0.945
LENG1,1,-0.454,-0.23
LENG1,2,0.872,9.1
LENG1,3,1.69,14.8
NT5C1A,1,6.61 (active),49.5
NT5C1A,2,-1.2,-5.44
NT5C1A,3,0.169,4.16
CYP4F8,1,-0.133,2.03
CYP4F8,2,-1.07,-4.59
CYP4F8,3,-0.635,-1.5
PRPH,1,-0.152,1.9
PRPH,2,-1.07,-4.54
PRPH,3,-0.764,-2.41
SPNS3,1,-0.0873,2.35
SPNS3,2,-1.41,-6.99
SPNS3,3,-0.225,1.39
HTRA1,1,-0.547,-0.881
HTRA1,2,4.95,37.8
HTRA1,3,-0.00523,2.93
PRKY,1,-1.08,-4.64
PRKY,2,-0.517,-0.668
PRKY,3,0.979,9.85
TRNT1,1,1.36,12.5
TRNT1,2,-0.654,-1.64
TRNT1,3,4.09,31.7
LIAS,1,-1.07,-4.56
LIAS,2,-0.755,-2.34
LIAS,3,1.52,13.7
CCL17,1,-0.0954,2.3
CCL17,2,0.961,9.73
CCL17,3,2.71,22
PRH2,1,-0.0174,2.84
PRH2,2,0.802,8.61
PRH2,3,1.22,11.6
PTGES3P3,1,1.39,12.8
PTGES3P3,2,-0.0418,2.67
PTGES3P3,3,-0.0927,2.32
ADRA1B,1,4.29,33.1
ADRA1B,2,0.942,9.59
ADRA1B,3,-0.557,-0.948
SV2C,1,-1.54,-7.84
SV2C,2,-0.187,1.65
SV2C,3,-0.0504,2.61
ANKRD13B,1,0.0157,3.08
ANKRD13B,2,0.0722,3.48
ANKRD13B,3,-0.737,-2.22
ASIP,1,3.72,29.2
ASIP,2,-0.102,2.25
ASIP,3,0.27,4.87
PRKAG2,1,-0.506,-0.596
PRKAG2,2,1.38,12.7
PRKAG2,3,0.868,9.08
